Data: PubChem BioAssay AID330 (DTP/NCI, 2004)
The list is a part of this screen's results and no random one: it gathers tests that were run many times, whatever their T/C, doses with no T/C, and many T/C values between a quarter and a half above the control. Other doses and runs of a compound stand elsewhere. T/C is the treated group as % of the vehicle group. Some doses have a count of surviving animals in place of a T/C: the source files T/C as zero there, which appears to mark a toxic dose or a test without result, not a measured value. Some survivor counts are full or nearly so, which does not show that the dose was tolerated: survival well below the control is almost never listed, so the zero probably covers shortened survival too. Survivors were counted at the toxicity check, usually on the fifth day, unless a day is given; later deaths do not show. Schedule codes are those of the source, read here as Q, the interval in days (D) or hours (H), X, the number of doses. Some doses were run more than once; their values stand side by side, smallest first. Where survival is the endpoint, this PubChem deposit counts one and a half times the control or more as active, and values a quarter to a half above the control carry no call in these data; other NCI protocols may use other cut-offs. Additions like (4×) say how often a value occurs here.

Test system: P388 leukemia ip, CD2F1 mice, survival T/C
Assay: NCI In Vivo Anticancer Drug Screen. Data for tumor model P388 Leukemia (intraperitoneal) in CD2F1 (CDF1) mice
Details: T/C endpoint: median survival time, higher T/C = longer survival
[1] = dose: 1.56 mg/kg/injection, schedule: Q01DX009 (ip), vehicle: saline
[2] = dose: 3.12 mg/kg/injection, schedule: Q01DX009 (ip), vehicle: saline
[3] = dose: 12.5 mg/kg/injection, schedule: Q01DX009 (ip), vehicle: saline with Tween-80
[4] = dose: 50.0 mg/kg/injection, schedule: Q01DX009 (ip), vehicle: saline with Tween-80
[5] = dose: 100.0 mg/kg/injection, schedule: Q01DX009 (ip), vehicle: saline with Tween-80
[6] = dose: 200.0 mg/kg/injection, schedule: Q01DX009 (ip), vehicle: saline with Tween-80
[7] = dose: 200.0 mg/kg/injection, schedule: Q01DX005 (ip), vehicle: Klucel (hydroxypropylcellulose) (HPC)
[8] = dose: 100.0 mg/kg/injection, schedule: Q01DX005 (ip), vehicle: saline
[9] = dose: 200.0 mg/kg/injection, schedule: Q01DX009 (ip), vehicle: Klucel (hydroxypropylcellulose) (HPC)
[10] = dose: 200.0 mg/kg/injection, schedule: Q01DX009 (ip), vehicle: saline

CC[CH](C)[Sn](=[O])[c]1ccccc1 (stereo not drawn)
survivor count (dose: 0.39 mg/kg/injection, schedule: Q01DX009 (ip), vehicle: saline): 6 of 6
survivor count (dose: 0.79 mg/kg/injection, schedule: Q01DX009 (ip), vehicle: saline): 6 of 6
T/C [1]: 126 % of control
survivor count [1]: 6 of 6
T/C [2]: 146 % of control
survivor count [2]: 6 of 6
survivor count (dose: 6.25 mg/kg/injection, schedule: Q01DX009 (ip), vehicle: saline with Tween-80): 1 of 6
survivor count [3]: 0 of 6
survivor count [4]: 0 of 6
survivor count [5]: 0 of 6
survivor count [6]: 0 of 6

O=C(Cc1nc2ccccc2[nH]1)NNC(=S)NC1CCCCC1
survivor count [7]: 6 of 6

CC(C)CC(NC(=O)OCC[P+](c1ccccc1)(c1ccccc1)c1ccccc1)C(=O)O (stereo not drawn)
T/C (dose: 8.25 mg/kg/injection, schedule: Q01DX009 (ip), vehicle: saline with Tween-80): 134 % of control
T/C [3]: 130 % of control (2×)
survivor count (dose: 18.75 mg/kg/injection, schedule: Q01DX009 (ip), vehicle: saline with Tween-80): 5 of 6
survivor count (dose: 25.0 mg/kg/injection, schedule: Q01DX009 (ip), vehicle: saline with Tween-80): 5 of 6
survivor count [4]: 1 of 6
survivor count [5]: 0 of 6
survivor count [6]: 0 of 6

O=C(CN1CCCCC1)Nc1cccc(Cl)c1
survivor count (dose: 400.0 mg/kg/injection, schedule: Q01DX009 (ip), vehicle: saline with Tween-80): 0 of 6

C=C(c1ccccc1)C1(O)CCCCC1N(C)C (stereo not drawn)
survivor count (dose: 100.0 mg/kg/injection, schedule: Q04DX002 (ip), vehicle: saline with Tween-80): 0 of 6
survivor count (dose: 200.0 mg/kg/injection, schedule: Q04DX002 (ip), vehicle: saline with Tween-80): 0 of 6
survivor count (dose: 400.0 mg/kg/injection, schedule: Q04DX002 (ip), vehicle: saline with Tween-80): 0 of 6

CC1CN(C2CCCCC2)CO1 (stereo not drawn)
survivor count [8]: 1 of 6

O=[N+]([O-])c1cc(Cl)ccc1S(=O)(=O)CCCl
survivor count (dose: 100.0 mg/kg/injection, schedule: Q04DX002 (ip), vehicle: Klucel (hydroxypropylcellulose) (HPC)): 0 of 6
survivor count (dose: 200.0 mg/kg/injection, schedule: Q04DX002 (ip), vehicle: Klucel (hydroxypropylcellulose) (HPC)): 0 of 6
survivor count (dose: 400.0 mg/kg/injection, schedule: Q04DX002 (ip), vehicle: Klucel (hydroxypropylcellulose) (HPC)): 0 of 6

CC1(C)CC(C)(OC(=O)c2ccccc2Cl)N=N1 (stereo not drawn)
T/C (dose: 25.0 mg/kg/injection, schedule: Q01DX009 (ip), vehicle: other): 128 % of control

COC(=O)C1c2ccccc2CC(=O)N1NC(=O)c1ccccc1 (stereo not drawn)
survivor count [9]: 0 of 6

CN(C)CCSc1cccc2c1C(=O)c1cccc(SCCN(C)C)c1C2=O
survivor count (dose: 25.0 mg/kg/injection, schedule: Q01DX009 (ip), vehicle: saline): 6 of 6
survivor count (dose: 50.0 mg/kg/injection, schedule: Q01DX009 (ip), vehicle: saline): 6 of 6
survivor count (dose: 50.0 mg/kg/injection, schedule: Q01DX009 (ip), vehicle: water): 6 of 6
survivor count (dose: 100.0 mg/kg/injection, schedule: Q01DX009 (ip), vehicle: saline): 6 of 6
survivor count (dose: 100.0 mg/kg/injection, schedule: Q01DX009 (ip), vehicle: water): 4 of 6
survivor count [10]: 6 of 6
survivor count (dose: 400.0 mg/kg/injection, schedule: Q01DX009 (ip), vehicle: saline): 0 of 6

CC1(C)OCC(C2CCC3(C)C4=CCC5C(C)(C)C(O)CCC5(C)C4CCC23C)CC(O)C1O (stereo not drawn)
T/C (dose: 1.25 mg/kg/injection, schedule: Q01DX009 (ip), vehicle: alcohol): 138 % of control
T/C (dose: 2.5 mg/kg/injection, schedule: Q01DX009 (ip), vehicle: alcohol): 130 % of control
T/C (dose: 5.0 mg/kg/injection, schedule: Q01DX009 (ip), vehicle: alcohol): 136 % of control
T/C (dose: 10.0 mg/kg/injection, schedule: Q01DX009 (ip), vehicle: alcohol): 136 % of control

CCCCCCN(CCCCCC)C(=N)c1ccnc2ccccc12
survivor count [8]: 0 of 5
survivor count (dose: 200.0 mg/kg/injection, schedule: Q01DX005 (ip), vehicle: saline): 0 of 5

CCOC(=O)/C=C(\C)NC(C)=NC(C)(C)C
survivor count [10]: 0 of 6

C[C@]12CC[C@H]3[C@@H](CC[C@H]4N(CCCl)CCC[C@]34C)[C@@H]1CC[C@@H]2O
T/C (dose: 50.0 mg/kg/injection, schedule: Q01DX001 (ip), vehicle: saline): 135 % of control
survivor count (dose: 100.0 mg/kg/injection, schedule: Q01DX001 (ip), vehicle: saline): 0 of 6

C=CCN1CCCSC1=S
survivor count [9]: 0 of 6

CC(=O)OC1CCC2(C)C(=CCC3C2CCC2(C)C3CC3ON=C(C)C32)C1 (stereo not drawn)
survivor count (dose: 50.0 mg/kg/injection, schedule: Q01DX005 (ip), vehicle: Klucel (hydroxypropylcellulose) (HPC)): 6 of 6

CCN(CC)C(=O)c1ccc(C)c2c1Nc1c(c(C)c3oc(=O)c(C)nc3c1C(=O)N(CC)CC)O2
survivor count (dose: 30.0 mg/kg/injection, schedule: Q01DX005 (ip), vehicle: Klucel (hydroxypropylcellulose) (HPC)): 6 of 6
survivor count (dose: 60.0 mg/kg/injection, schedule: Q01DX005 (ip), vehicle: Klucel (hydroxypropylcellulose) (HPC)): 6 of 6

Cc1cc(NC(=O)c2ccc(NC(=O)c3ccc(N)cc3)cc2)ccc1N=Nc1ccc2c(O)c(N=Nc3ccc(S(=O)(=O)O)cc3C)c(S(=O)(=O)O)cc2c1
T/C (dose: 200.0 mg/kg/injection, schedule: Q01DX005 (ip), vehicle: saline with Tween-80): 126 % of control

CN(C)CCC=C1c2ccccc2C(C)(C)c2ccccc21
survivor count [7]: 0 of 6

CNc1c([N+](=O)[O-])cc2[nH]c(C)nc2c1[N+](=O)[O-]
survivor count (dose: 50.0 mg/kg/injection, schedule: Q04DX003 (ip), vehicle: saline with Tween-80): 0 of 6
survivor count (dose: 100.0 mg/kg/injection, schedule: Q04DX003 (ip), vehicle: saline with Tween-80): 0 of 6 and 2 of 6
survivor count (dose: 200.0 mg/kg/injection, schedule: Q04DX003 (ip), vehicle: saline with Tween-80): 0 of 6
survivor count (dose: 400.0 mg/kg/injection, schedule: Q04DX003 (ip), vehicle: saline with Tween-80): 0 of 6

O=c1[nH]c2ccccc2nc1/C=C(\O)c1ccc([N+](=O)[O-])cc1
survivor count (dose: 60.0 mg/kg/injection, schedule: Q01DX005 (ip), vehicle: Klucel + Tween-80): 6 of 6
survivor count (dose: 120.0 mg/kg/injection, schedule: Q01DX005 (ip), vehicle: Klucel + Tween-80): 5 of 6
survivor count (dose: 240.0 mg/kg/injection, schedule: Q01DX005 (ip), vehicle: Klucel + Tween-80): 4 of 6

CCCCCCC(=O)/C=C/c1ccccc1OC(=O)/C=C/c1ccccc1
survivor count (dose: 200.0 mg/kg/injection, schedule: Q01DX005 (ip), vehicle: saline + alcohol): 6 of 6

CC1CC(c2ccc3ccccc3c2)NCCNC(c2ccc3ccccc3c2)CC(C)NCCN1 (stereo not drawn)
survivor count (dose: 0.78 mg/kg/injection, schedule: Q01DX009 (ip), vehicle: saline): 6 of 6
survivor count [1]: 6 of 6
survivor count [2]: 6 of 6
survivor count (dose: 6.25 mg/kg/injection, schedule: Q01DX009 (ip), vehicle: saline): 6 of 6
